Measurements from article PMC6504903.
No constants are given. Whether binding was seen depends on the method and setting. For some of these results: In cells and extracts the contact can be indirect. Some binding calls cover weakened binding; strength is not graded here. Where a sequence is shown, tags or fusion partners need not be part of it.

T1: GFP11-mCherry-Mps2 (budding yeast) (UniProt P53159)
T1 sequence: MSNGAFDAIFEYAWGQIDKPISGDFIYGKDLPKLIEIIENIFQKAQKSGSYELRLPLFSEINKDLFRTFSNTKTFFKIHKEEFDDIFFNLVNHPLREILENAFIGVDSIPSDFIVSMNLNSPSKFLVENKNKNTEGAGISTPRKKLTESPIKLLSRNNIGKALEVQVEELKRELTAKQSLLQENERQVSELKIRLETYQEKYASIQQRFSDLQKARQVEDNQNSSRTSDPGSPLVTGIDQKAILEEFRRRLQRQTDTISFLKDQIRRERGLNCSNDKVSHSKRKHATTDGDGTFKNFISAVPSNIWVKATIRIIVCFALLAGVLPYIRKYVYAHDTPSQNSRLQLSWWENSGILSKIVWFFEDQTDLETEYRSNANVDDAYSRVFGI

T2: Bbp1 fused to the Gal4-binding domain (BD) (budding yeast), Q12365
T2 chain: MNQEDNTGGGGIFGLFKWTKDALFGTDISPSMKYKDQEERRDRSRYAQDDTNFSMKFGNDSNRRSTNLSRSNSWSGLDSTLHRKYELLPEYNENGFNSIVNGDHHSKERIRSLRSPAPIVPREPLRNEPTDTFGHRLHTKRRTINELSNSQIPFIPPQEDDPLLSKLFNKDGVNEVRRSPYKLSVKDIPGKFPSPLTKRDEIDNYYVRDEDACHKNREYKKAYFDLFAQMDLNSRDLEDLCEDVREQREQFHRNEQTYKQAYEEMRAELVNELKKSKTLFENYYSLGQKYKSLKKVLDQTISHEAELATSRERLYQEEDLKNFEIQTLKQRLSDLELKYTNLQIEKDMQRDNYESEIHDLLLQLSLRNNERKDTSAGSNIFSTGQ

T3: GFP11-mCherry-Mps2 (budding yeast), P53159
T3 chain: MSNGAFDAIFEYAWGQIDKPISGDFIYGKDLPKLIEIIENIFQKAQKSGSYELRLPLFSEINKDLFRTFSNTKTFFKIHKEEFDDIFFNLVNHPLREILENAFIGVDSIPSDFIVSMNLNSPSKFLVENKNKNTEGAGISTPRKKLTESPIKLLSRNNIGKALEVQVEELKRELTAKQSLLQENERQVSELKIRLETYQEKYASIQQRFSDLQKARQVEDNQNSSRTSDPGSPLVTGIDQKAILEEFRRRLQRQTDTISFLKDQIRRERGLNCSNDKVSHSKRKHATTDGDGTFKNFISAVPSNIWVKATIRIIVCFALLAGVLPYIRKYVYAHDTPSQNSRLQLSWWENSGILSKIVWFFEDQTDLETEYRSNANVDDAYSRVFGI

T4: Bbp1 fused to the Gal4-binding domain (BD) (budding yeast) (UniProt Q12365)
T4 sequence: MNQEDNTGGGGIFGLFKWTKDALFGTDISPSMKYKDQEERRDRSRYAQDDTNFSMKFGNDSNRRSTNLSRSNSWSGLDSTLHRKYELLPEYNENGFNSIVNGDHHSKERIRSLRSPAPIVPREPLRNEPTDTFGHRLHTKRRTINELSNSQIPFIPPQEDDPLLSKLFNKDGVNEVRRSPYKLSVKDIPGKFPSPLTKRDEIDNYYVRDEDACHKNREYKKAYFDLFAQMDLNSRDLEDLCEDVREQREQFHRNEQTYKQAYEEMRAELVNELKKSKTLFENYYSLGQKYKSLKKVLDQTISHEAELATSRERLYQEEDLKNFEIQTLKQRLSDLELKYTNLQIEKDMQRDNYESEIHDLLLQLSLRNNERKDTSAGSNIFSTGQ


Assays:
[1] = molecular target: T1, GFP11-mCherry-Mps2 (budding yeast); assay: split reporter; split-GFP (GFP1-10 and GFP11) in fixed yeast cells read by SIM at the SPB; the Mps2-Mps3 pairs also by three-colour imaging with Spc110-mT2
[2] = molecular target: T2, Bbp1 fused to the Gal4-binding domain …; assay: two-hybrid; Gal4 BD-Bbp1 with Gal4 AD fusions from low-copy centromeric plasmids (ADH1 promoter); HIS3 reporter, 10-fold serial dilutions on SD-Leu-Trp-His with 25 mM 3AT, 30°C, 4 d; in wild-type (SLJ1644), pom152Δ (SLJ12623) and pom152Δ mps2Δ (SLJ12624) strains; settings: remark: other sources report otherwise
[3] = molecular target: T3, GFP11-mCherry-Mps2 (budding yeast), …; assay: split reporter; split-GFP (GFP1-10 and GFP11) in fixed yeast cells read by SIM at the SPB; the Mps2-Mps3 pairs also by three-colour imaging with Spc110-mT2; settings: remark: other sources report otherwise
[4] = molecular target: T4, Bbp1 fused to the Gal4-binding domain (BD) (budding yeast); assay: two-hybrid; Gal4 BD-Bbp1 with Gal4 AD fusions from low-copy centromeric plasmids (ADH1 promoter); HIS3 reporter, 10-fold serial dilutions on SD-Leu-Trp-His with 25 mM 3AT, 30°C, 4 d; in wild-type (SLJ1644), pom152Δ (SLJ12623) and pom152Δ mps2Δ (SLJ12624) strains

binding [1]	Binder	other results
no binding	Heh2-GFP_(1–10) (protein, UniProt Q03281 1-663) MDHRNLDPKTLKVSQLRRVLVENDVAFPANARKPVLVKLFEEKVRQRLQSSPEASKVRTSIQKVVKSGAKNADRKKTLKSKKLESSSSESKTVKDENVETNKRKREQISTDNEAKMQIQEEKSPKKKRKKRSSKANKPPESPPQSKSDGKATSADLTSELETVEELHKKDSSDDKPRVKELPKPELPNLKVSNEFLAQLNKELASAATENYDHSIKSTDLSSIRIETEEPVGPSTGAETRNESEVMENINLEVQPEVKEAKEELTKISETFDNQDEEDTSRLSSKKNIRSPKGRTRHFIANKTKRGIDIMKPFIAHLFIWLWNGAIFLSIICPILFGLWYREQRIQVGYCGHEKPLKSLAISAFPQTERVDSVLQAYRPNCLECPEHGICSSFMNVECEPGYEPKSSILETYGIIPFPKYCAKDESKEKEVDELVWKVNEYLKKKNAQHECGEGENLFESGETETKLYDIFSHSRPSWESQREFNDHWKNVLEILKKKDDIIWLPLDFETNGKREKSKSNNTNYIYRSTSKKWVTLQCHLEGDIQEYITKYGGSLFITLGVLFLIKKIQSTLDNYVQGEQIIEKLVKEAIDKLKDVKKNKGEEPFLTTVQLRATLLSDIPNIKEQNNLWAQTKEKIMKEQSENIELYLLEENGEIMTCWEWKE	
binds	GFP_(1–10)-Mps3 (protein, UniProt P47069 1-682) MNNSNEHRREEAGAANEQMPYNKAVKSAYADVLKDKMNREQEISLRAIKKGIYTDGGETDNYDMDKENDSAYEMFKKNLDFPLDQHNDDDDDDPYIEDNGQETDGYSDEDYTDEADKSFIEDSDSDSYDLESNSDFEENLESSGEAKKLKWRTYIFYGGLFFVFYFFGSFLMTTVKNNDLESHSSGATSSPGKSFSNLQKQVNHLYSELSKRDEKHSSELDKTVKIIVSQFEKNIKRLLPSNLVNFENDINSLTKQVETISTSMSELQRRNHKFTVENVTQWQDQLVKQLDTHLPQEIPVVINNSSSLLIIPELHNYLSALISDVIESPGIGTAGSAESRWEYDLNRYVKEILSNELQYIDKDYFIQEMNRRLQSNKQEIWEEITNRLETQQQQQQQQVQQDYSNVPQQYSSILMKRLIHQIYNSNQHQWEDDLDFATYVQGTKLLNHLTSPTWRQGSGVQPIELLTDSKQSSSTYWQCENEPGCSWAIRFKTPLYLTKISYMHGRFTNNLHIMNSAPRLISLYVKLSQTKEIKALQTLANQYGFGQHHKRDRNYIKIAKFEYRLTDSRIRQQMYLPPWFIQLKPLVRSIVFQVDENYGNKKFISLRKFIINGVTPQDLQIIENNEFPVLLGDTPEYGVTQNTDEGKRKVLLSKPPYASSSTSTKFHPASNVPSFGQDELDQ	
	Ndc1 fused to the Gal4 activation domain (AD), P32500 1-655 (protein) MIQTPRELLNPRYTYHTIFSDVCKTRFNHLVTRLFFICSIIQTVVISLLALPHSPLWELALAFIPNILALNLVSLLIIVTRKNYMHVKNFGFANSLTFILGQLLSVKFLVYQGVYSMGSILLSFVLGVVFGRGGSGWKPYYKLFIWLVVPTIYNLQHHVTDADKLSFNCENFFQAPQDYVLERVKRIMEKSVILSVISMFVLPIFTTVFFSRQKSGLFDSFTNGVLAVTNLLIISCIIFITFEFINIAFDAHMSIGCLHKGKLISNLSSTPMETLLSGLSADKPFTRLTAYQELAYRATSLDPSLRAPIYHSKFRSSSGNTWSLILNECLKTIQINNEKVVQYLRSVQDLGGSATARHKKKVENLDYMYENGKLTSANERLFGNRPSMMAPLRDNGLLDESPNRLRVRTDDSVLLNRGNKKRHRSSYYDNDLDETTQTFNGSIFTHETTFMTAMRLMLKKLKNSIMSFIFPSYAERQSSDESDNYRLLPNGSNKAQISIIDIWSISKKRQAEKLVPLPICHANSVVALTGLLIRSKTEDPKGGIIASVGDILKTLERSICALGEFADWDPESMAYTAFQTQRTAQDRVQQDSEDEDSMKDTTDMISVLYQLSTSAFMEIVLEYNVALNDVYLDADVAKLANWFLEVYASGNPNAT	binding [2]: binds
	Ndc1-GFP_(1–10), P32500 1-655 (protein) MIQTPRELLNPRYTYHTIFSDVCKTRFNHLVTRLFFICSIIQTVVISLLALPHSPLWELALAFIPNILALNLVSLLIIVTRKNYMHVKNFGFANSLTFILGQLLSVKFLVYQGVYSMGSILLSFVLGVVFGRGGSGWKPYYKLFIWLVVPTIYNLQHHVTDADKLSFNCENFFQAPQDYVLERVKRIMEKSVILSVISMFVLPIFTTVFFSRQKSGLFDSFTNGVLAVTNLLIISCIIFITFEFINIAFDAHMSIGCLHKGKLISNLSSTPMETLLSGLSADKPFTRLTAYQELAYRATSLDPSLRAPIYHSKFRSSSGNTWSLILNECLKTIQINNEKVVQYLRSVQDLGGSATARHKKKVENLDYMYENGKLTSANERLFGNRPSMMAPLRDNGLLDESPNRLRVRTDDSVLLNRGNKKRHRSSYYDNDLDETTQTFNGSIFTHETTFMTAMRLMLKKLKNSIMSFIFPSYAERQSSDESDNYRLLPNGSNKAQISIIDIWSISKKRQAEKLVPLPICHANSVVALTGLLIRSKTEDPKGGIIASVGDILKTLERSICALGEFADWDPESMAYTAFQTQRTAQDRVQQDSEDEDSMKDTTDMISVLYQLSTSAFMEIVLEYNVALNDVYLDADVAKLANWFLEVYASGNPNAT	binding [3]: binds
binds	Nbp1-GFP_(1–10) (protein, UniProt P52919 1-319) MLKSVQGLWKDFFGIRDDGRKREYGSLDEVRKRSALRSRRKQMRPTGKSVLKRPRKVTDRKTEEKIRTNRRKTPKRRLTKIFQTIRDVFSNDNENMSKMQNVCGDMTRILKKRSQGRPSYMDTDTAKSRILRSDAFKRKISELKYNKQRISELRSGSSDGSSGKDRNQSLYLDREILLQRQIKKRDEKIKALESKLQSLQEALNYSNEKYRILEDLLDSSNIHPSYTKSRRTMSNLARENDEIKPLKIDLSPSPIRRTNSLFTSSPMKTYNRDGNIPEMQPLQENISPACPTPPYRSRETEKEDETLSPISVDFSSYLS	
	Spc29 fused to the Gal4 activation domain (AD) (protein, UniProt P33419 1-253) MDYSNFGNSASKKFQDDTLNRVRKEHEEALKKLREENFSSNTSELGNKKHYRAQERMSSPLHRLSPTGKSDDRKVKSPLDDKLRRQLREGNTRLPPPPFSSYGMPPTNRSNLDRIRRRTSSPVRTDKFASQNVIDDQRLEIKYLERIVYDQGTVIDNLTSRITRLESFILNSISDRGDKNFASLEHSRSFSGFPTNKTYGLQMGGLYENDMPYRRSSDNINKEGAREDRSSQIHIENESTEDILKILSSSFHN	binding [4]: binds
binds	Bbp1-GFP_(1–10) (protein, UniProt Q12365 1-385) MNQEDNTGGGGIFGLFKWTKDALFGTDISPSMKYKDQEERRDRSRYAQDDTNFSMKFGNDSNRRSTNLSRSNSWSGLDSTLHRKYELLPEYNENGFNSIVNGDHHSKERIRSLRSPAPIVPREPLRNEPTDTFGHRLHTKRRTINELSNSQIPFIPPQEDDPLLSKLFNKDGVNEVRRSPYKLSVKDIPGKFPSPLTKRDEIDNYYVRDEDACHKNREYKKAYFDLFAQMDLNSRDLEDLCEDVREQREQFHRNEQTYKQAYEEMRAELVNELKKSKTLFENYYSLGQKYKSLKKVLDQTISHEAELATSRERLYQEEDLKNFEIQTLKQRLSDLELKYTNLQIEKDMQRDNYESEIHDLLLQLSLRNNERKDTSAGSNIFSTGQ	
